# Results published in PubChem BioAssay AID652054 (National Center for Advancing Translational Sciences (NCATS), 2013).
# Chains of the proteins cited; added tags and fusions are not shown.
# UniProt P35462, whole entry, looked up: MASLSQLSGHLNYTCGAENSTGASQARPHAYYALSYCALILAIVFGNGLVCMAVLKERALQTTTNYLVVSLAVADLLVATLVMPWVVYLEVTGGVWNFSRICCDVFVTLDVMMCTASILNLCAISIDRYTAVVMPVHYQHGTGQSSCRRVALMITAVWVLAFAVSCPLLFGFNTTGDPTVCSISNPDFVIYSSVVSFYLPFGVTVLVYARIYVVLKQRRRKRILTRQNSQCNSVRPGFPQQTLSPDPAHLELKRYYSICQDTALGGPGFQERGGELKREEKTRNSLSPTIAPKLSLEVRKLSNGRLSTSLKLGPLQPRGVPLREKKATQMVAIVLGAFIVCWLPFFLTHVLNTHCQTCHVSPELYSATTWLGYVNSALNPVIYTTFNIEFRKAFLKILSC
# Among all 360,000 compounds or so, about 9,100 (2.5%) were called active. Inconclusive means that the source gave no clear call. Such entries were picked first, then a sample of the others. Cut-off read from the data, not from the text of the source: active = max response below about -50%; inconclusive = no clear call, values can overlap the other calls; inactive = above that.
# Molecular target: D(3) dopamine receptor (Homo sapiens) (UniProt P35462)
# Test: qHTS of D3 Dopamine Receptor Antagonist: qHTS
# Settings: D3R cells, DiscoveRx beta-arrestin luminescence, antagonist mode; active compounds read low
# Summary of the method: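 Cells expressing the human receptor were seeded at 1500 cells/well, incubated overnight at 37 degrees C in 5% CO2, then exposed to library compounds with dopamine controls for 90 minutes at 37 degrees C before luminescent detection.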
# % is set by controls: 0 for no effect and ±100 for the full control effect.
row,Compound,"max response, negative = inhibition"
1,COCCNC(=O)C(c1ccc(C)cc1)N(Cc1ccco1)C(=O)CCC(=O)Nc1ccccn1 (stereo not given),active: -89.5%
2,CC1=NN2C(=N)/C(=C\c3cc(C)n(-c4ccccc4)c3C)C(=O)N=C2S1,inconclusive: -33%
3,COC(=O)c1c(C)[nH]c(C(=O)COC(=O)CCNS(=O)(=O)c2cccc(C(F)(F)F)c2)c1C,inconclusive: -45.5%
4,OC(c1ccccc1)(c1nc(-c2ccc(Cl)cc2)cs1)C(F)(F)F (stereo not given),inactive: -18.3%
5,O=C(C(c1ccccc1)c1ccccc1)N1CCCc2ccccc21,active: -60.8%
6,Cc1ccc(N2C(=O)[C@@H]3[C@H](C2=O)C2c4ccccc4C=CN2[C@@H]3C(=O)c2ccco2)c(C)c1 (stereo not given in full),inconclusive: -48.9%
7,CC(C)(C)NC(=O)NC(=O)CN1CCN(c2ncc(C(F)(F)F)cc2Cl)CC1,inconclusive: -35.1%
8,O=[N+]([O-])c1ccc(NN=Cc2cccc([N+](=O)[O-])c2)cc1,inconclusive: -44.7%
9,O=C(Nc1ccc(Cl)cc1)Nc1ccc(S(=O)(=O)Nc2ncccn2)cc1,inconclusive: -37.1%
10,O=C(Cn1c(=O)oc2ccccc21)N(Cc1ccccc1)C1CCS(=O)(=O)C1 (stereo not given),inactive: 0%
11,CSc1ccc(OC2(C)CCN(Cc3ccc(-c4ccccn4)cc3)C2)cc1 (stereo not given),active: -55.2%
12,CCN1CCN(C(=S)Nc2ccc(Cl)cc2)CC1,inconclusive: -30.7%
13,O=C(Nc1nnc([C@H]2C[C@H](O)[C@@H](CO)O2)s1)Nc1ccccc1Oc1ccccc1,inconclusive: -39.5%
14,Cc1cccc(N2CCN(Cc3nc(-c4cccc(Cl)c4)oc3C)CC2)n1,inconclusive: -36.7%
15,COc1ccccc1C(=O)NC(=O)CSc1nnnn1C,inactive: 0.975%
16,COc1cccc(OC)c1OCCN1CCC(C(=O)NC(c2ccccc2)c2ncccc2C)CC1 (stereo not given),inconclusive: -40.8%
17,NC(=O)c1ccccc1NC(=O)c1ccccc1Cl,inactive: -24.2%
18,COc1ccc(-c2csc(NC(C)c3nc4cc(Cl)c(Cl)cc4n3CCOCCO)n2)cc1 (stereo not given),inactive: -10.1%
19,COc1ccc2oc(=O)c(-c3cn4ccc(C)cc4n3)cc2c1,inactive: 4.97%
20,S=c1[nH]nc(CSc2nc3ccccc3s2)n1Cc1ccccc1,inconclusive: -43.8%
21,N#CC(C#N)=NNc1ccc(S(=O)(=O)N2CCCCC2)cc1,inconclusive: -33.5%
22,COc1cccc(-c2sc3ccc(OC)cc3c2-c2ccc(OCCN3CCCCC3)cc2)c1,inactive: -12.2%
23,O=C(Cc1csc(N2CCOCC2)n1)N/N=C/c1ccc(O)c(O)c1O,active: -57.4%
24,CC(C)Cc1cc(C(=O)N2CCC(N3CCC(C(=O)NC4CC4)CC3)CC2)n[nH]1,inactive: -9.25%
25,COc1cc(NS(=O)(=O)c2ccc(NC(=S)NC(=O)c3ccco3)cc2)ncn1,inconclusive: -34.8%
26,Cc1nnc(SC(=O)N2c3ccccc3Sc3ccccc32)s1,inconclusive: -31.5%
27,COc1ccccc1Nc1ccc(C(=O)O)cc1[N+](=O)[O-],active: -58.9%
28,COc1ccc(Cc2c(O)nc(SC)n(C(C)=O)c2=O)cc1,inconclusive: -44.3%

row,Compound,"max response, negative = inhibition"
1,O=C1[C@H]2[C@@H](c3ccc(F)cc3)N3C(=O)N(c4cccc(Cl)c4)C(=O)[C@@]3(Cc3ccccc3)[C@H]2C(=O)N1C1CCCCC1,inconclusive: -33.7%
2,COc1ccc(C(=O)CC(=O)C(=O)NCCc2cccc(C)c2)cc1,inactive: -23.2%
3,COc1ccc(CN2CCN(Cc3ccc(Br)cc3)CC2)c(OC)c1OC,inconclusive: -48.9%
4,Cc1nnc(C)c2c(C)n(C(C)c3ccccc3)c(C)c12 (stereo not given),inconclusive: -36.5%
5,CCn1cc(S(=O)(=O)CC(=O)Nc2ccc(C)cc2)c2ccccc21,inconclusive: -49.1%
6,COCc1ccc(C(=O)N2CCC(CCC(=O)Nc3cccc(C)c3)CC2)s1,inactive: -1.06%
7,COc1ccccc1-c1nnc(NC(=O)c2ccc(S(=O)(=O)N(C)Cc3ccccc3)cc2)o1,active: -77.9%
8,O=C(NC(=S)Nc1ccccc1)c1cc([N+](=O)[O-])ccc1N1CCOCC1,inconclusive: -30.1%
9,O=C(CCc1ccc(S(=O)(=O)N2CCOCC2)cc1)N1CCc2ccccc2C1,inactive: 9.26%
10,O=C(CO/N=C/c1ccccc1OC(F)F)NC1CCCC1,inactive: 8.59%
11,S=C(NCCc1ccccn1)Nc1cccc(Cl)c1,inconclusive: -35.6%
12,COc1ccc(C(=O)OC2C(OC)OCC(O)C2O)cc1 (stereo not given),inactive: -16%
13,Cc1cccc(C)c1NC(=O)C(CCc1ccccc1)n1c(=O)c(-c2ccccc2)nc2ccccc21 (stereo not given),inconclusive: -36.9%
14,CC1N(C)c2cc(NC(=O)c3ccco3)ccc2C1(C)C (stereo not given),inconclusive: -43.6%
15,O=C1/C(=C\c2ccc([N+](=O)[O-])cc2)CCc2ccccc21,inconclusive: -36.8%
16,COc1cccc(C(O)c2nc(-c3cncnc3)cs2)c1 (stereo not given),inconclusive: -39.1%
17,COc1cc(Nc2ccc(C(=O)O)cc2[N+](=O)[O-])cc(OC)c1,inconclusive: -38.2%
18,CC(C)CCN1CCN(Cc2cn[nH]c2C2CCCCC2)CC1CCO (stereo not given),inconclusive: -35.5%
19,CC(OC(=O)c1ncc(Cl)c(Cl)c1Cl)C(=O)NC1(C#N)CCCCC1 (stereo not given),inactive: -11.1%
20,COc1cc(C#N)ccc1OCC(=O)c1ccc2c(c1)OCCO2,inconclusive: -32.2%
21,COc1ccc(C2CC(=O)C3=C(C2)Nc2ncnn2C3c2ccccc2C)c(OC)c1 (stereo not given),inconclusive: -47.4%
22,CCOC(=O)c1c(NC(=O)CSc2ncn[nH]2)sc(C)c1C,inconclusive: -38.2%
23,CN(Cc1ccc(Cl)cc1Cl)C(=O)c1cccc(S(=O)(=O)NCc2ccccc2)c1,inactive: -26.2%
24,S=C(NC1CCCCC1)N1CCN(C2CCCCC2)CC1,inconclusive: -33%
25,COc1nc2ccccc2nc1N1CCN(Cc2ccc3c(c2)OCO3)CC1,active: -114%
26,CCOc1ccc2c(c1)C(=O)C(=O)N2CC1COc2ccccc2O1 (stereo not given),inconclusive: -41.6%
27,CCOC(=O)c1sc(NS(=O)(=O)c2cc(C)ccc2C)nc1C,inconclusive: -31%

# Of the compounds above, these have a furan ring, fused or not.
row,Compound,"max response, negative = inhibition"
1,COCCNC(=O)C(c1ccc(C)cc1)N(Cc1ccco1)C(=O)CCC(=O)Nc1ccccn1 (stereo not given),active: -89.5%
6,Cc1ccc(N2C(=O)[C@@H]3[C@H](C2=O)C2c4ccccc4C=CN2[C@@H]3C(=O)c2ccco2)c(C)c1 (stereo not given in full),inconclusive: -48.9%
25,COc1cc(NS(=O)(=O)c2ccc(NC(=S)NC(=O)c3ccco3)cc2)ncn1,inconclusive: -34.8%
14,CC1N(C)c2cc(NC(=O)c3ccco3)ccc2C1(C)C (stereo not given),inconclusive: -43.6%
